Measurements as given in publication doi:10.1101/2025.10.17.683079.
Results are given in words; binding and its absence hold for the method and conditions named. In cells and extracts the contact can be indirect. Some entries that bind do so weakly or less than the wild type.

Target: T1, HDAC11 (mouse (endogenous in hippocampus)) (UniProt Q91WA3)
T1 sequence: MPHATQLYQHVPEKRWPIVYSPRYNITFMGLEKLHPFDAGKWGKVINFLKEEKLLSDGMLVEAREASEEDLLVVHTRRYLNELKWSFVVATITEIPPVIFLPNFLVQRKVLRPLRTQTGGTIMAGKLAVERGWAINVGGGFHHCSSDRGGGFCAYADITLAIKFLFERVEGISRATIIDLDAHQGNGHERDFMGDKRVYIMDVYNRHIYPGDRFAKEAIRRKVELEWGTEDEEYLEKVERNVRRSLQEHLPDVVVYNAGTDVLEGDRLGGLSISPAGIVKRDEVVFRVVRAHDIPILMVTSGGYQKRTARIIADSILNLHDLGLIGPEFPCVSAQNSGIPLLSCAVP
Test: co-IP

binding: binds
B1: NR1H2 (also known as LXRβ) (protein, UniProt Q60644 1-446)
chain: MSSPTSSLDTPVPGNGSPQPSTSATSPTIKEEGQETDPPPGSEGSSSAYIVVILEPEDEPERKRKKGPAPKMLGHELCRVCGDKASGFHYNVLSCEGCKGFFRRSVVHGGAGRYACRGSGTCQMDAFMRRKCQLCRLRKCKEAGMREQCVLSEEQIRKKRIQKQQQQQPPPPSEPAASSSGRPAASPGTSEASSQGSGEGEGIQLTAAQELMIQQLVAAQLQCNKRSFSDQPKVTPWPLGADPQSRDARQQRFAHFTELAIISVQEIVDFAKQVPGFLQLGREDQIALLKASTIEIMLLETARRYNHETECITFLKDFTYSKDDFHRAGLQVEFINPIFEFSRAMRRLGLDDAEYALLIAINIFSADRPNVQEPSRVEALQQPYVEALLSYTRIKRPQDQLRFPRMLMKLVSLRTLSSVHSEQVFALRLQDKKLPPLLSEIWDVHE
